Measured values as given in US6031084A, “Azoamide compound” (Wako Pure Chemical Industries, Ltd., priority 1998, dated 2000).

Experiment: Polymerization rate of acrylamide with the azo compound as polymerization initiator
Conditions: acrylamide in distilled water, 80° C., nitrogen
Experimental: Acrylamide(20 g) was dissolved in 380 g of distilled water and 14.0×10^5 mol of Present compound 1 obtained in Example 1 was added thereto as a polymerization initiator. The mixture was heated at 80° C. with stirring under nitrogen gas atmosphere to cause polymerization reaction. After the polymerization was started, samplings of the reaction solution were conducted at predetermined intervals, and methanol was added to the samples to form precipitates of the produced polymer, which were recovered and dried. The polymerization rates at each sampling time were measured.
The polymerization rates were measured by same measurement as Example 3 except for using Known compound 1, Known compound 2 or Known compound 3 in place of using Present compound 1.

| SMILES | Polymerization rate at polymerization time 0.5 H | Polymerization rate at polymerization time 1.0 H | Polymerization rate at polymerization time 1.5 H | Polymerization rate at polymerization time 2.0 H | Polymerization rate at polymerization time 3.0 H | Polymerization rate at polymerization time 4.0 H |
| --- | --- | --- | --- | --- | --- | --- |
| CC(C)(N=NC(C)(C)C(=O)NCCO)C(=O)NCCO [Known compound 1, 2,2'-azobis[2-methyl-N-(2-hydroxyethyl)-propionamide]] | 26.9% | 45.9% | 56.0% | 67.6% | 76.2% | 82.1% |
| CC[C@H](CO)NC(=O)C(C)(C)N=NC(C)(C)C(=O)N[C@H](CC)CO [Present compound 1, 2,2'-azobis[N-(butanol-2-yl)-2-methylpropionamide]] | 26.1% | 42.0% | 54.4% | 65.1% | 76.1% | 82.9% |
| CC(CO)(CO)NC(=O)C(C)(C)N=NC(C)(C)C(=O)NC(C)(CO)CO [Known compound 3, 2,2'-azobis {2-methyl-N-[1,1-bis(hydroxymethyl)ethyl]propionamide}] | 15.7% | 26.9% | 33.6% | 40.6% | 53.8% | 64.2% |
| CC(C)(N=NC(C)(C)C(=O)NC(CO)(CO)CO)C(=O)NC(CO)(CO)CO [Known compound 2, 2,2'-azobis {2-methyl-N-[1,1-bis(hydroxymethyl)-2-hydroxyethyl]propionamide}] | 14.7% | 31.0% | 35.4% | 43.2% | 55.6% | 66.1% |
